{
  "source": "patent US4681871A",
  "about": "“Pharmacologically active peptides” (priority 1979, dated 1987)",
  "key": {"[1]": {"biological_target": "T1, carboxy peptidase (Type Y, Boehringer) (Saccharomyces cerevisiae, UniProt P00729)", "T1 construct": "purchased Boehringer", "T1 sequence (P00729 112-532)": "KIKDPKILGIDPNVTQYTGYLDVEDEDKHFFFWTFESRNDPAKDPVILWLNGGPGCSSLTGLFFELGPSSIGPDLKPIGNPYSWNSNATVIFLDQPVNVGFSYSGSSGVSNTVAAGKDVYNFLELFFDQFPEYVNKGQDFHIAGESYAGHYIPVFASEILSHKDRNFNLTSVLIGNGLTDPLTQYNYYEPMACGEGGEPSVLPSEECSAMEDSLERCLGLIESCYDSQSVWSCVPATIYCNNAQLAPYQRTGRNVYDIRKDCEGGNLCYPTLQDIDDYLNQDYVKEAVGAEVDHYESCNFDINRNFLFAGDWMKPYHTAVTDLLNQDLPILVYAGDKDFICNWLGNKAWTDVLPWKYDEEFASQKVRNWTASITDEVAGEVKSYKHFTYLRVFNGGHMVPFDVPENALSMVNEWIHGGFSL", "experiment": "incubation with carboxy peptidase, then opiate test", "conditions": "3 mg peptide, 0.2 mg carboxy peptidase Type Y, 37° C., acetate buffer pH 5.5, first three hours"}, "[2]": {"system": "longitudinal muscle plexusmyentericus preparation of guinea pig ileum", "experiment": "opiate-like activity on electrically stimulated guinea pig ileum preparation", "assay_type": "cell-based", "conditions": "material eluted from BIO-GEL P 2 gel filtration, 79-84 ml"}, "[3]": {"system": "rats", "experiment": "analgesia after injection into the ventricle system of rats", "assay_type": "in vivo"}},
  "note": "At least one peptide structure holds a part that was inferred or is arguable (an end, a ring closure or a residue). Ends that are not written are not given here.",
  "data": [
    {"substance": "YPFPGPI [β-casomorphin-7, Tyr-Pro-Phe-Pro-Gly-Pro-Ile]", "values": [
      {"measurement": "change of opiate activity on incubation with carboxy peptidase", "setting": "[1]", "result": "massive increase in the opiate activity"},
      {"measurement": "specific activity (opiate-like activity per unit weight compared to normorphine)", "setting": "[2]", "result": "6500 nanomole normorphine-equivalent (per g)"},
      {"measurement": "analgesia (reduced pain sensitivity)", "setting": "[3]; 400 to 1200 micrograms into the ventricular system, 30 to 45 minutes after injection", "result": "severe analgesia"},
      {"measurement": "effect of naloxon on the analgesia", "setting": "[3]; subcutaneous injection of 10 mg per kg naloxon after the peptide", "result": "neutralized"}
    ]}
  ]
}
